Test results from PubChem BioAssay AID1347076 (National Center for Advancing Translational Sciences (NCATS), 2019).
Among all 400,000 compounds or so, about 13,000 (3.2%) were called active. Inconclusive means that the source gave no clear call. Such entries were picked first, then a sample of the others. Calls follow the shape of the dose curve; as a rule, active = well fitted cell-killing curve with a large enough effect; inconclusive = small, poorly fitted or top-dose-only effect, or effect the other way; inactive = flat fitted curve, though single readings scatter. Potencies beside an inconclusive call are fits to weak or partial responses and may not hold up.

Test: qHTS assay for MDR1-selective chemotherapeutics: Primary screen using the drug-selected MDR subline cells KB-V1; also: nearly all actives have a fitted effect of over 60% in size
Conditions: KB-V1 MDR cells viability, CellTiter-Glo, 72 h; activity change, negative = cytotoxicity: at 46.1 µM (top of the series)
In short: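 Cytotoxicity via CellTiter-Glo luminescence after 72 h compound exposure at 37 degrees C. Cells: drug-selected KB-V1 line, DMEM phenol-red free plus 10% FBS. Compounds tested at multiple concentrations; normalized data fitted to concentration-effect curves.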
% is scaled to controls: 0 for no effect and ±100 for the full control effect; potency is read from the fitted curve at half-maximal effect.

| SMILES | activity change, negative = cytotoxicity | Potency |
| --- | --- | --- |
| CCOc1ccc(C(=O)NCC(=O)N2CCN(c3ccc(C(F)(F)F)cn3)CC2)cc1 | inactive: 5.85% |  |
| Cc1ccc(C2CC(=O)C=C(NCC(C)C)C2)cc1 (stereo unspecified) | inconclusive: -6.06% |  |
| COC(=O)c1c(C)oc2ccc(NS(=O)(=O)c3cc(OC)ccc3OC)cc12 |  | active: 10.3 µM |
| CC(C)Cc1nc(Nc2ccc(S(=O)(=O)N3CCCC3)cc2)c2nnn(Cc3ccccc3)c2n1 |  | active: 20.6 µM |
| CCCCN(CC)CCCNC(=O)c1cc2c(=O)[nH]c3ccccc3c2s1 |  | inactive |
| Cc1ccc(C(N)=Nc2ccccc2)cc1 | inactive: -0.0061% |  |
| O=C(NC1CCSC1=O)c1ccccc1 (stereo unspecified) | inactive: 7.82% |  |
| O=C1C=Cc2ccccc2/C1=C/c1[nH]c(=O)[nH]c1O | inactive: -2.63% |  |
| O=C(CN(Cc1ccccc1)C(=O)c1csnn1)NCc1ccccc1 |  | inconclusive: 29.1 µM [cytotoxic, single point] |
| O=C(Cc1ccc([N+](=O)[O-])cc1)N1N=C(C2CC2)CC1(O)C(F)(F)F (stereo unspecified) |  | inconclusive: 29.1 µM [cytotoxic, single point] |
| CCOC(=O)C1CCN(c2cc3c(cc2NC(=O)c2ccccc2F)n(C)c(=O)n3C)CC1 | inactive: -3.72% |  |
| CCN(CC)c1ccc(NC(=O)c2ccc(Br)o2)c(C)c1 |  | inconclusive: 23.1 µM [cytotoxic, partial curve, poor fit] |
| C=CCC(C(=O)Oc1c(C(C)(C)C)cc(C)cc1C(C)(C)C)c1ccccc1 (stereo unspecified) |  | inconclusive: 7.31 µM [rising, partial curve, poor fit] |
| Cc1ccc2nc(-c3ccccc3)c(Cc3ccccc3C(F)(F)F)n2c1 | inactive: -10.9% |  |
| Cc1ccc(CNC(=O)CCc2nnc3ccc(N4CCC5(CC4)OCCO5)nn23)cc1 |  | inconclusive: 13 µM [rising, partial curve, poor fit] |
| CC1=C(C(=O)OCC(C)C)C(c2cc3c(cc2Br)OCO3)NC(=O)N1C (stereo unspecified) | inactive: -14.3% |  |
| CCCC(C)NC(=O)Cn1c(=O)c2c(ncn2CCC(C)C)n(Cc2ccccc2)c1=O (stereo unspecified) |  | inconclusive: 6.51 µM [cytotoxic, partial curve] |
| CN1CCCN(c2cc(-c3ccc4ccccc4c3)nc3ccnn23)CC1 | inactive: 6.38% |  |
| COc1ccc(CNC(=O)c2ccc3c(c2)nc2n3CCOC2)c(OC)c1 |  | inconclusive: 14.6 µM [rising, partial curve, poor fit] |
| CCn1c(COc2cccc(C)c2)nnc1SCC(=O)N1CCCC1 |  | inconclusive: 29.1 µM [cytotoxic, single point] |
| Cn1c(=O)n(CC(N)=O)c(=O)c2c1nc1n2CCCN1Cc1ccccc1 |  | inconclusive: 5.8 µM [rising, full curve] |

Retrieved one by one from the entries so far (two):

| SMILES | activity change, negative = cytotoxicity | Potency |
| --- | --- | --- |
| Cn1c(=O)n(CC(N)=O)c(=O)c2c1nc1n2CCCN1Cc1ccccc1 |  | inconclusive: 5.8 µM [rising, full curve] |
| Cc1ccc(CNC(=O)CCc2nnc3ccc(N4CCC5(CC4)OCCO5)nn23)cc1 |  | inconclusive: 13 µM [rising, partial curve, poor fit] |
